Test: DCFDA oxidation, cell free control
Conditions: 2 h
[1] = 6.25 µM, presence of 5 mM NAC (brackets)
[2] = 12.5 µM, presence of 5 mM NAC (brackets)
[3] = 25 µM, presence of 5 mM NAC (brackets)
[4] = 50 µM, presence of 5 mM NAC (brackets)

## Oc1cccc2cccnc12 [Compound Q-1, 8-Hydroxyquinoline]
6.25 µM
  Fold change in fluorescence (DCFDA): 1.098± 0.50
[1]
  Fold change in fluorescence (DCFDA): 1.307± 0.23
12.5 µM
  Fold change in fluorescence (DCFDA): 0.891± 0.24
[2]
  Fold change in fluorescence (DCFDA): 1.262± 0.26
25 µM
  Fold change in fluorescence (DCFDA): 0.917± 0.35
[3]
  Fold change in fluorescence (DCFDA): 1.223± 0.39
50 µM
  Fold change in fluorescence (DCFDA): 1.094± 0.65
[4]
  Fold change in fluorescence (DCFDA): 1.167± 0.51

## Oc1c(CN2CCCCC2)ccc2cccnc12 [Compound Q-3, 7-(piperidin-1-ylmethyl)quinolin-8-ol]
6.25 µM
  Fold change in fluorescence (DCFDA): 0.823± 0.17
[1]
  Fold change in fluorescence (DCFDA): 1.297± 0.58
12.5 µM
  Fold change in fluorescence (DCFDA): 1.114± 0.53
[2]
  Fold change in fluorescence (DCFDA): 1.516± 0.52
25 µM
  Fold change in fluorescence (DCFDA): 1.103± 0.45
[3]
  Fold change in fluorescence (DCFDA): 1.683± 0.58
50 µM
  Fold change in fluorescence (DCFDA): 1.076± 0.38
[4]
  Fold change in fluorescence (DCFDA): 1.868± 0.71

## 7-(2-fluorobenzyl-aminomethyl)-8-hydroxyquinoline hydrochloride [De-Cl-Q-4]
6.25 µM
  Fold change in fluorescence (DCFDA): 1.684± 2.02
[1]
  Fold change in fluorescence (DCFDA): 3.020± 0.79
12.5 µM
  Fold change in fluorescence (DCFDA): 1.437± 0.88
[2]
  Fold change in fluorescence (DCFDA): 4.085± 1.53
25 µM
  Fold change in fluorescence (DCFDA): 1.648± 1.19
[3]
  Fold change in fluorescence (DCFDA): 7.474± 4.04
50 µM
  Fold change in fluorescence (DCFDA): 2.248± 1.31
[4]
  Fold change in fluorescence (DCFDA): 7.609± 3.35

## Oc1ccc(Cl)c2cccnc12 [Compound 5-Cl-Q-1]
6.25 µM
  Fold change in fluorescence (DCFDA): 1.175± 0.32
[1]
  Fold change in fluorescence (DCFDA): 2.112± 1.18
12.5 µM
  Fold change in fluorescence (DCFDA): 1.214± 0.43
[2]
  Fold change in fluorescence (DCFDA): 1.858± 0.92
25 µM
  Fold change in fluorescence (DCFDA): 1.271± 0.88
[3]
  Fold change in fluorescence (DCFDA): 2.200± 1.14
50 µM
  Fold change in fluorescence (DCFDA): 1.011± 0.50
[4]
  Fold change in fluorescence (DCFDA): 1.730± 1.05

## Oc1c(CN2CCCCC2)cc(Cl)c2cccnc12 [Compound 5-Cl-Q-3]
6.25 µM
  Fold change in fluorescence (DCFDA): 2.088± 1.94
[1]
  Fold change in fluorescence (DCFDA): 3.961± 2.13
12.5 µM
  Fold change in fluorescence (DCFDA): 1.760± 0.97
[2]
  Fold change in fluorescence (DCFDA): 4.868± 3.72
25 µM
  Fold change in fluorescence (DCFDA): 2.156± 1.85
[3]
  Fold change in fluorescence (DCFDA): 5.140± 3.72
50 µM
  Fold change in fluorescence (DCFDA): 1.849± 1.53
[4]
  Fold change in fluorescence (DCFDA): 4.642± 2.74

## Oc1c(CN2CCOCC2)cc(Cl)c2cccnc12 [Compound 5-Cl-Q-2]
6.25 µM
  Fold change in fluorescence (DCFDA): 1.920± 1.42
[1]
  Fold change in fluorescence (DCFDA): 2.823± 1.17
12.5 µM
  Fold change in fluorescence (DCFDA): 2.196± 1.53
[2]
  Fold change in fluorescence (DCFDA): 4.603± 3.89
25 µM
  Fold change in fluorescence (DCFDA): 2.732± 2.28
[3]
  Fold change in fluorescence (DCFDA): 3.304± 1.33
50 µM
  Fold change in fluorescence (DCFDA): 2.435± 1.51
[4]
  Fold change in fluorescence (DCFDA): 3.799± 3.46

## Oc1c(CN2CCOCC2)ccc2cccnc12 [Compound Q-2, 7-(morpho-lino-methyl)quinolin-8-ol]
6.25 µM
  Fold change in fluorescence (DCFDA): 1.266± 0.45
[1]
  Fold change in fluorescence (DCFDA): 1.129± 0.42
12.5 µM
  Fold change in fluorescence (DCFDA): 1.297± 0.61
[2]
  Fold change in fluorescence (DCFDA): 1.351± 0.67
25 µM
  Fold change in fluorescence (DCFDA): 1.308± 0.69
[3]
  Fold change in fluorescence (DCFDA): 1.461± 0.44
50 µM
  Fold change in fluorescence (DCFDA): 2.350± 2.19
[4]
  Fold change in fluorescence (DCFDA): 1.472± 0.53

## Oc1c(CNCc2ccccc2F)cc(Cl)c2cccnc12 [Compound Q-4, 5-chloro-7-((2-fluorobenzylamino)methyl)quinolin-8-ol]
6.25 µM
  Fold change in fluorescence (DCFDA): 0.924± 0.45
[1]
  Fold change in fluorescence (DCFDA): 5.061± 1.94
12.5 µM
  Fold change in fluorescence (DCFDA): 0.864± 0.34
[2]
  Fold change in fluorescence (DCFDA): 7.004± 4.76
25 µM
  Fold change in fluorescence (DCFDA): 0.745± 0.29
[3]
  Fold change in fluorescence (DCFDA): 6.141± 2.99
50 µM
  Fold change in fluorescence (DCFDA): 1.462± 1.42
[4]
  Fold change in fluorescence (DCFDA): 4.679± 1.90

From article PMC7796460, “Relation of Metal-Binding Property and Selective Toxicity of 8-Hydroxyquinoline Derived Mannich Bases Targeting Multidrug Resistant Cancer Cells” (Cancers, 2021)
